In publication PMC12217462 (Antimicrobial Agents and Chemotherapy, 2025):

These compounds were tested on HCT8 cells (assay: Cytotoxicity on confluent monolayer HCT8 cells (Promega CellTiter Aqueous One MTS assay)). Conditions: TC50 HCT8 relative to EC50 B. duncani.
Assay type: cell-based, human
Description: Human HCT8 cells were grown in tissue culture flasks until a confluent monolayer was achieved. […] Cells were incubated with the drug for 48 hours. Promega CellTiter Aqueous One Solution Cell Proliferation Assay (MTS) (PRG3580) was commercially obtained and used to ascertain cell viability, with […] measured using a Biotek microplate reader. Cells incubated in 0.5% DMSO served as a positive growth control and comparator arm.

| SMILES | Therapeutic index |
| --- | --- |
| Cc1[nH]c2ccccc2c1CCNCc1ccc(/C=C/C(=O)NO)cc1 [Panobinostat] | 16,000 |
| O=C(/C=C/c1cccc(S(=O)(=O)Nc2ccccc2)c1)NO [Belinostat] | 600 |
| CCCCc1nc2cc(/C=C/C(=O)NO)ccc2n1CCN(CC)CC [Pracinostat] | 2,800 |
| Cn1cc(CNCC2CCN(c3ncc(C(=O)NO)cn3)CC2)c2ccccc21 [Quisinostat] | 38,000 |
| CCN(CC)Cc1ccc2cc(COC(=O)Nc3ccc(C(=O)NO)cc3)ccc2c1 [Givinostat] | 190 |
| Nc1ccccc1NC(=O)c1ccc(CNC(=O)OCc2cccnc2)cc1 [Entinostat] | 5 |
| O=C(/C=C/c1ccc(CN(CCO)CCc2c[nH]c3ccccc23)cc1)NO [Dacinostat] | 6,600 |
| Nc1ccccc1NC(=O)c1ccc(CNc2nccc(-c3cccnc3)n2)cc1 [Mocetinostat] | 23 |
| O=C(NO)c1cnc(N2C[C@@H]3[C@H](C2)[C@H]3NCc2ccc3cc(F)ccc3n2)nc1 [Nanatinostat] | 1,900 |
